# No constants are given. Whether binding was seen depends on the method and setting. Some binding calls cover weakened binding; strength is not graded here.
# Amino acid sequences for entries named in this document (tags omitted). A change or cut given only in a name is not applied to a line headed by its entry.
# UniProt P97793: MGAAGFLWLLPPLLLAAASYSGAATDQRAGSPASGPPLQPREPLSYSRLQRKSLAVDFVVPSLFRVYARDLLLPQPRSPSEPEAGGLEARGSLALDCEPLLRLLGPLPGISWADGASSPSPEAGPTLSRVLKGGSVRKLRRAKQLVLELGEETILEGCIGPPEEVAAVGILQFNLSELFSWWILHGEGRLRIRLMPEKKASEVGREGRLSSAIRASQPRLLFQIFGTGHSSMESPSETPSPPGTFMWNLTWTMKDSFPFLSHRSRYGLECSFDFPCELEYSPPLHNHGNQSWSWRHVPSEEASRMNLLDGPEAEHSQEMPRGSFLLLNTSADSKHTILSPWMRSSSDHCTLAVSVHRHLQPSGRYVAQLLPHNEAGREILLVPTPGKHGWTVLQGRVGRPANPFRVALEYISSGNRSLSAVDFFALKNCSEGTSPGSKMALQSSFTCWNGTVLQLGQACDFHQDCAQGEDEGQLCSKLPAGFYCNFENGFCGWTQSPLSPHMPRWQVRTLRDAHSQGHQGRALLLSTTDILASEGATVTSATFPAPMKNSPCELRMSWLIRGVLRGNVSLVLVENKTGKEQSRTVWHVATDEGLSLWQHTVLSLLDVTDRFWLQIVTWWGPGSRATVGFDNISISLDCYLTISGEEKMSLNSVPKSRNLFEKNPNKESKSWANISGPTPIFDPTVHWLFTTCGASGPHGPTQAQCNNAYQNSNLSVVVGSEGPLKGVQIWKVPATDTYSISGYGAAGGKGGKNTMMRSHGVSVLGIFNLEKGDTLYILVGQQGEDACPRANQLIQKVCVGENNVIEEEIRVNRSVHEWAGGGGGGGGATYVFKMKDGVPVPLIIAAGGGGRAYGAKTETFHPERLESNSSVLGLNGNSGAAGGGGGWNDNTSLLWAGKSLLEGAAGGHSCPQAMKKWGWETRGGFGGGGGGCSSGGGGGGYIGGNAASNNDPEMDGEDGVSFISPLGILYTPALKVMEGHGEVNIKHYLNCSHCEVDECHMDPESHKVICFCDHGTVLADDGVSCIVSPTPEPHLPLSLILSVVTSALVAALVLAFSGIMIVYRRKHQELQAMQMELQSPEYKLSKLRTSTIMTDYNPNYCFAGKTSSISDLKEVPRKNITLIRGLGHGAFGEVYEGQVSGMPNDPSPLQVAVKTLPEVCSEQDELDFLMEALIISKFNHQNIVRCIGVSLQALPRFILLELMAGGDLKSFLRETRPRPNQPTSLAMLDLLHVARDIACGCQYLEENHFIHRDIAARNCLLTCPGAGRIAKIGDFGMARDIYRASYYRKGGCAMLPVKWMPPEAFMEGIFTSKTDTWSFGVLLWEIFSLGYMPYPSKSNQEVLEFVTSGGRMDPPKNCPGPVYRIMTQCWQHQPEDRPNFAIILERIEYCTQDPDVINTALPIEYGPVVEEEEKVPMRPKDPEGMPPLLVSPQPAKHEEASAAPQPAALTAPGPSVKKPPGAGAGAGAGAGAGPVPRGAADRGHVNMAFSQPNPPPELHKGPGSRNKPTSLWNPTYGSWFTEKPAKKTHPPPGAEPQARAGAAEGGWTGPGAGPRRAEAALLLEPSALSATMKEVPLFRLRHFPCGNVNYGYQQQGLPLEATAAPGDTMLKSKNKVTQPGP
# UniProt Q9UM73: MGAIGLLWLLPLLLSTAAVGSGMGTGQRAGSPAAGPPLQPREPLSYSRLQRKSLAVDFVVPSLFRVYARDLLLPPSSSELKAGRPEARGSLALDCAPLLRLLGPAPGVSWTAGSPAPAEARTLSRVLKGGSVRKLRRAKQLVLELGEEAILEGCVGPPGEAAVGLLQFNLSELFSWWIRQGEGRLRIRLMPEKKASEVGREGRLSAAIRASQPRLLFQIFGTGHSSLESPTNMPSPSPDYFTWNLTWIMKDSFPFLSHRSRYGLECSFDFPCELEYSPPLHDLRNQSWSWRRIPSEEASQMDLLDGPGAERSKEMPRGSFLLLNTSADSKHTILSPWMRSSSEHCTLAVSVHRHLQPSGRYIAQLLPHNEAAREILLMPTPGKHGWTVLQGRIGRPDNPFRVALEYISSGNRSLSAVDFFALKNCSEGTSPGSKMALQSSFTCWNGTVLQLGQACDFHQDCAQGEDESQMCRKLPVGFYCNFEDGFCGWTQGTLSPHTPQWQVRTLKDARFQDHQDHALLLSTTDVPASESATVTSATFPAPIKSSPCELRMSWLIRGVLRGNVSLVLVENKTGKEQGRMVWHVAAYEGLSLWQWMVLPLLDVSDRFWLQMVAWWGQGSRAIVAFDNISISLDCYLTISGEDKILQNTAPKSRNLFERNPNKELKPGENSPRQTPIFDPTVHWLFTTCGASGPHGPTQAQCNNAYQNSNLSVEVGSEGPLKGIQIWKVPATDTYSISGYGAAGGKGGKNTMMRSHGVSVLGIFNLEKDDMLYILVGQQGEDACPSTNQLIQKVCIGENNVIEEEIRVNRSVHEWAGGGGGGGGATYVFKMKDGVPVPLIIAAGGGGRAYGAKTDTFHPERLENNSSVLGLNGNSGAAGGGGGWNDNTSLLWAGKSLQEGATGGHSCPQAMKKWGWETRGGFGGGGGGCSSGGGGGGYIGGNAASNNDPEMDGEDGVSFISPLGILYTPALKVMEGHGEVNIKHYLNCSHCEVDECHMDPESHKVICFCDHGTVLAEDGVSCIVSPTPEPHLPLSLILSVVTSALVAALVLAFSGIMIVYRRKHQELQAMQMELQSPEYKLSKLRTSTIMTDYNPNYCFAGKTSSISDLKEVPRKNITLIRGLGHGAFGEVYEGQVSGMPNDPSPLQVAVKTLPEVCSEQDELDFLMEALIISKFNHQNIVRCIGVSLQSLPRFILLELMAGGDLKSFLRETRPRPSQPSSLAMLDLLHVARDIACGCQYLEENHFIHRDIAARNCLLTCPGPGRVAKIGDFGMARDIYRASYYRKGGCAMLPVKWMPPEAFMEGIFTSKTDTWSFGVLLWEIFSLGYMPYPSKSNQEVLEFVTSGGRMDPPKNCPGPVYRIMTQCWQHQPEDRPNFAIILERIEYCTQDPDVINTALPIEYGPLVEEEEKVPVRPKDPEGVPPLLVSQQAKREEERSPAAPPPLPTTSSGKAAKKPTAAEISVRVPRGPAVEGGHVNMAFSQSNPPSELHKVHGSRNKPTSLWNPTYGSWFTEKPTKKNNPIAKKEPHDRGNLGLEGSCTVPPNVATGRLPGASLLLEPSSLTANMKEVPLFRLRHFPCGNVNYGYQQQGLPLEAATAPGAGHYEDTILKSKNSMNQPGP
# Target: murine ALK (Table 18, 'mouse ALK binding') (mouse) (UniProt P97793)
# Assay: ELISA on purified mouse ALK or flow cytometry on Neuro-2a cells
row,Binder,binding
1,"Ab320 (antibody, V domains shown) VH: QVQLQQSGAELVKPGASVKISCKASGYAFSSYWMNWVKQRPGKGLEWIGQIYPGDGDTNYNGKFKGKATLTADKSSSTAYMQLSSLTSEDSAVYFCASYYYGSKAYWGQGTLVTVSA VL: DIQMTQSPASLAASVGETVTITCRASENIYYSLAWYQQKQGKSPQLLIYNANSLEDGVPSRFSGSGSGTQYSMKINSMQPEDTATYFCKQAYDVPFTFGSGTKLEIKR",binds
2,"Ab326 (antibody, V domains shown) VH: QVQLQQSGAELAKPGASVKLSCKASGYTFTSYWMHWVKQRPGQGLEWIGYIKPSSGYTKYNQKFKDKATLTADKSSSTAYMQLSSLTYEDSAVYYCARDYYGSSSWFAYWGQGTLVTVSA VL: DIVMTQSQRFMSTSVGDRVSVTCKASQNVGTNVAWYQQKPGQSPKALIYSASYRYSGVPDRFTGSGSGTDFTLTISNVQSEDLAEYFCQQYNSYPYMYTFGGGTKLEIKR",binds
3,"Ab328 (antibody, V domains shown) VH: QVQLQQSGAELAKPGASVKLSCKASGYTFTSYWMHWVKQRPGQGLEWIGYINPSSGYTKYNQKFKDKATLTADKSSSTAYMQLSSLTFEDSAVYYCARDYYGSSSWFAYWGQGTLVTVSA VL: DIVMTQSQKFMSTSVGDRVSVTCKASQNVGTNVAWYQQKPGHSPKALIYSASYRYSGVPDRFTGSGSGTDFTLTISNVQSEDLAEYFCQRYNSYPYMFTFGGGTKLEIKR",binds
4,"Ab323 (antibody, V domains shown) VH: QVQLQQSGAELVKPGASVKISCKTSGYTFSNYWMNWVKQRPGKGLEWIGQIFPGDADANYNGKFKGKATLTADKSSSAAFMQLSSLTSEDSAVYFCARFSYDGAFAYWGQGTLVTVS VL: DIVMTQSHKFMSTSVGDRVSITCKASQDVSTAVAWYQQKPGQSPKPLIYWASTRHTGVPDRFTGSGSGTDYTLTISSVQTEDLALYYCQQHYSTPRTFGGGTKLEIKR",binds
5,"Ab329 (antibody, V domains shown) VH: QVQLKESGPGLVKPSATLSLTCTVSGFSLTSYHVCWIRQTPGKGLEWMGVIWGDGRTTYNPPLKSRLSISRDTSKSQVFLKMSSLKTEDTATYYCARATMTGHGDAWGQGASVTVSS VL: DIQMTQSPASLSASLEEIVTITCQASQDIDNYLSWYQQKPGKSPHLLIHSATSLADGVPSRFSGGRSGTQFSLKINRLQVEDTGIYYCLQHYSGWTFGGGTKLELKR",binds

# Next, values leading:
row,binding,Binder
1,binds,"Ab327 (antibody, V domains shown) VH: DVKLVESGEGLVKPGGSLKLSCAASGFTFSSYAMSWVRQTPEKRLEWVTYISSGGDYIYYADTVKGRFTISRDNARNTLYLQMSSLKSEDTAMYYCTRERIWLRRFFDVWGTGTTVTVSS VL: DIVMTQSQKFMSTSVGDRVSITCKASQNVGTAVAWYQLKPGQSPKLLIYSASNRFTGVPDRFTGSGSGTDFTLTISNMQSEDLADYFCQQYSSYPLTFGSGTKLEIKR"
2,binds,"Ab325 (antibody, V domains shown) VH: QVQLQQSGAELVKPGASVKISCKASGYAFSSYWMNWVKQRPGKGLEWIGQIYPGDGDTNYNGKFKGKATLTADKSSSTAYMQLSSLTSEDSAVYFCARWYYGSYYAMDYWGQGTSVTVSS VL: DIQMTQTTSSLSASLGDRVTISCRASQDISNYLNWYQQKPDGTVKLLIYYTSRLHSGVPSRFSGSGSGTDYSLTISNLEQEDIATYFCQQGNTLPRTFGGGTKLEIKR"
3,binds,"Ab330 (antibody, V domains shown) VH: EVQVVETGGGVVQPGKSLEITCATSGLTFSTAWMYWVRQSSDRRLEWIARIKDKSNKFASDYVESVRGRFTISRDDSRSSVYLQMNNLKEEDTATYYCTTSYGYAWGQGVMVTVSS VL: DIQMTQSPSSMSASLGDRVTITCQASQDIGNYLIWFQQKPGKSPRPLIYYATNLANGVPSRFSGSRSGSEYSLTITSLESEDMADYHCLQYKQHLTFGSGTKLEIER"

# Target: mouse ALK on the surface of Neuro2a cells (mouse) (UniProt P97793)
# Assay: flow cytometry on NB1 and Neuro2a cells
row,binding,Binder
1,binds,"Ab352 (antibody, V domains shown) VH: EVQLVQSGPEVKKPGTSVKLSCKASGYTFTSYWMHWVRQARGQRLEWIGYIKPSSGYTKYNQKFKDRATLTADKSTSTAYMELSSLRSEDTAVYYCARDYYGSSSWFAYWGQGTLVTVSS VL: EIVMTQSPAFLSVTPGEKVTITCKASQNVGTNVAWYQQKPDQAPKALIYSASYRYSGVPSRFSGSGSGTDFTLTISSLEAEDAATYYCQQYNSYPYMYTFGQGTKLEIK"
2,binds,"Ab355 (antibody, V domains shown) VH: QVQLVQSGAEVAKPGASVKLSCKASGYTFTSYWMHWVKQAPGQGLEWIGYIKPSSGYTKYNQKFKDKATLTADKSTSTAYMELRSLRSDDTAVYYCARDYYGSSSWFAYWGQGTLVTVSS VL: EIVMTQSPAFLSVTPGEKVTITCKASQNVGTNVAWYQQKPDQAPKALIYSASYRYSGVPSRFSGSGSGTDFTLTISSLEAEDAATYYCQQYNSYPYMYTFGQGTKLEIK"

# Target: human ALK on the surface of NB1 cells (human) (UniProt Q9UM73)
# Assay: flow cytometry on NB1 and Neuro2a cells
row,binding,Binder
1,binds,"Ab352 (antibody, V domains shown) VH: EVQLVQSGPEVKKPGTSVKLSCKASGYTFTSYWMHWVRQARGQRLEWIGYIKPSSGYTKYNQKFKDRATLTADKSTSTAYMELSSLRSEDTAVYYCARDYYGSSSWFAYWGQGTLVTVSS VL: EIVMTQSPAFLSVTPGEKVTITCKASQNVGTNVAWYQQKPDQAPKALIYSASYRYSGVPSRFSGSGSGTDFTLTISSLEAEDAATYYCQQYNSYPYMYTFGQGTKLEIK"
2,binds,"Ab355 (antibody, V domains shown) VH: QVQLVQSGAEVAKPGASVKLSCKASGYTFTSYWMHWVKQAPGQGLEWIGYIKPSSGYTKYNQKFKDKATLTADKSTSTAYMELRSLRSDDTAVYYCARDYYGSSSWFAYWGQGTLVTVSS VL: EIVMTQSPAFLSVTPGEKVTITCKASQNVGTNVAWYQQKPDQAPKALIYSASYRYSGVPSRFSGSGSGTDFTLTISSLEAEDAATYYCQQYNSYPYMYTFGQGTKLEIK"

# From patent US20200157236A1
